Measured values published in US20090053203A1.
These are yes or no findings as the source states them, for the method shown. Some binding calls cover weakened binding; strength is not graded here.

The chains behind the UniProt entries cited, without tags or fusion partners. Residues count along the entry.
UniProt P17301, residues 30-1181: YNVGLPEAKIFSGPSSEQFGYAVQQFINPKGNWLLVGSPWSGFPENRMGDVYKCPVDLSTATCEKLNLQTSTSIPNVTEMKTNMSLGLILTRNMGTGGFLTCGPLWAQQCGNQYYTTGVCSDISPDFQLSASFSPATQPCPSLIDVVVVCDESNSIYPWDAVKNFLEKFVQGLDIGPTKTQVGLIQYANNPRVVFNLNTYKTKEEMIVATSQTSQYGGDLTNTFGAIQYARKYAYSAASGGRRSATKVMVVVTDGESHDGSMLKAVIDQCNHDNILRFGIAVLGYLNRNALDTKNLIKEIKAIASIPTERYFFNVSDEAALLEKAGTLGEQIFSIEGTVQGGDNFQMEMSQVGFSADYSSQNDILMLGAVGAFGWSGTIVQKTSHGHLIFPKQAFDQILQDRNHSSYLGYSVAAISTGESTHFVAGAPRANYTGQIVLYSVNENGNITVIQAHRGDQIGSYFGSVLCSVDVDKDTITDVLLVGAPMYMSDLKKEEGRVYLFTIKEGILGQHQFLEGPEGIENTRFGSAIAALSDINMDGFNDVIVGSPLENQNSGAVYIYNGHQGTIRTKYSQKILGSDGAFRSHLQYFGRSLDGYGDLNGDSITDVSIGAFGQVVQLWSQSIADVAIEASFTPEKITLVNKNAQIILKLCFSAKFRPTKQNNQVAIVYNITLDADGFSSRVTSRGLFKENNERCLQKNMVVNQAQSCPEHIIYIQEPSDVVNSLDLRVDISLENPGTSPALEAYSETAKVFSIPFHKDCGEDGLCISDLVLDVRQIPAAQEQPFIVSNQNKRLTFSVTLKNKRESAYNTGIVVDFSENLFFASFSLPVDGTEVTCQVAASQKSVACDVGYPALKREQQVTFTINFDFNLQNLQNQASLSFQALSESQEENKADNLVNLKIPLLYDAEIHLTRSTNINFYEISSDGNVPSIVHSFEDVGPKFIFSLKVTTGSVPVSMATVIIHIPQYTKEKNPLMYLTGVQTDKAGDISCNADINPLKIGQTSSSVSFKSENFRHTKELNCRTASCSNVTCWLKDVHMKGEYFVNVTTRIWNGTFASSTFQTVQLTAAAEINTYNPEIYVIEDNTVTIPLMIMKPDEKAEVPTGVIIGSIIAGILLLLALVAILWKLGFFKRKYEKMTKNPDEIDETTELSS
UniProt P08648, residues 42-1049: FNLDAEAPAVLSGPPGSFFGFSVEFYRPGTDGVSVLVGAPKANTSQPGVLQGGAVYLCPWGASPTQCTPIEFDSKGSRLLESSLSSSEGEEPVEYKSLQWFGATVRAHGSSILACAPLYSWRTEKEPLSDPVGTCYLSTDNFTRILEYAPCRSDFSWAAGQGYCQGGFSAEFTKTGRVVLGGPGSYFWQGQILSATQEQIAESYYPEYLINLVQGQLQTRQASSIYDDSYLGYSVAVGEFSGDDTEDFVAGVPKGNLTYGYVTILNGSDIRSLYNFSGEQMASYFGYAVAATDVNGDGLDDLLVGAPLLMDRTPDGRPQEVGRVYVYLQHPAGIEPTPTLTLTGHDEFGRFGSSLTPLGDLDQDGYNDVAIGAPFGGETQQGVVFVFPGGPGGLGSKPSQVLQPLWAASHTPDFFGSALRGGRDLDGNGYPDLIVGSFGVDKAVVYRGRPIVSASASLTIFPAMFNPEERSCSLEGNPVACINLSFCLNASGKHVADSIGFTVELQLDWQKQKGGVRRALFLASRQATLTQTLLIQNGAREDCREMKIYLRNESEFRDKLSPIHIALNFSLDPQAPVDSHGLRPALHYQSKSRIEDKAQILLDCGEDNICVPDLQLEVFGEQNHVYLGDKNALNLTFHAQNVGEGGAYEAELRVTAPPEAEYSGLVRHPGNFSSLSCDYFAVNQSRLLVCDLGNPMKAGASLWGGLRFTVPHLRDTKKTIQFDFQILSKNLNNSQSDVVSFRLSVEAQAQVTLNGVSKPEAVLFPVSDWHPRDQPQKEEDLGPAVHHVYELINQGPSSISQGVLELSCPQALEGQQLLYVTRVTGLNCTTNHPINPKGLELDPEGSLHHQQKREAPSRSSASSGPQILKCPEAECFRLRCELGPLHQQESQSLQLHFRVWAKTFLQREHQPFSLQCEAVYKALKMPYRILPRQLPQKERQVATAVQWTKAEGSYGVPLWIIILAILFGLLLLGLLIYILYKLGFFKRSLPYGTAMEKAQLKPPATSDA
UniProt P06756, residues 31-1048: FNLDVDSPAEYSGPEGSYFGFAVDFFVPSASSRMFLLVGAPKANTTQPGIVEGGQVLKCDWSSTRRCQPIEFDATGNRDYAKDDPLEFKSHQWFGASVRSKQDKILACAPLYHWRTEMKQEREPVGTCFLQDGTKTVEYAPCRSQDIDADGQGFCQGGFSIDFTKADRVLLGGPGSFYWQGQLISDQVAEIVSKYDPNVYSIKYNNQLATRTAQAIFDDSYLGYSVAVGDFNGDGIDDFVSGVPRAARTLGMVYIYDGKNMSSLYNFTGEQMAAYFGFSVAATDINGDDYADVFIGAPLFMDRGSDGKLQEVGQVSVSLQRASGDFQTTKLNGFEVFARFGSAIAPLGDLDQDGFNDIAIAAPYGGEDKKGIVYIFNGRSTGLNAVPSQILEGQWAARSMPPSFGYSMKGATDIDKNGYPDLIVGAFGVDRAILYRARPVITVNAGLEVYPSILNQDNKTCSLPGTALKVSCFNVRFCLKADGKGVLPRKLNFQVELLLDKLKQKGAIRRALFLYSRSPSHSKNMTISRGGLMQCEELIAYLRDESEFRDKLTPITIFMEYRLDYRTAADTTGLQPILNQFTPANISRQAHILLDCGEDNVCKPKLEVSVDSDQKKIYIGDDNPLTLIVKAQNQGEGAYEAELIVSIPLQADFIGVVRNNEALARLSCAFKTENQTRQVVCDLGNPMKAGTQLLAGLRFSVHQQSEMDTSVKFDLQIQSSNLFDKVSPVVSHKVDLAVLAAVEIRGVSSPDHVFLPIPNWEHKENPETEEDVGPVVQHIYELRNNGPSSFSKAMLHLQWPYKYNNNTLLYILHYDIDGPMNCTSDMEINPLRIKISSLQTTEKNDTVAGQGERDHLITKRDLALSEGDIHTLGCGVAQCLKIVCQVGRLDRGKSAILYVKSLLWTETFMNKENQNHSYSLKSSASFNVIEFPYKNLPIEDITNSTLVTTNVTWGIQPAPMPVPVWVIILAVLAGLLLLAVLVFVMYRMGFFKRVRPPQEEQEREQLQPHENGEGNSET
UniProt P05556: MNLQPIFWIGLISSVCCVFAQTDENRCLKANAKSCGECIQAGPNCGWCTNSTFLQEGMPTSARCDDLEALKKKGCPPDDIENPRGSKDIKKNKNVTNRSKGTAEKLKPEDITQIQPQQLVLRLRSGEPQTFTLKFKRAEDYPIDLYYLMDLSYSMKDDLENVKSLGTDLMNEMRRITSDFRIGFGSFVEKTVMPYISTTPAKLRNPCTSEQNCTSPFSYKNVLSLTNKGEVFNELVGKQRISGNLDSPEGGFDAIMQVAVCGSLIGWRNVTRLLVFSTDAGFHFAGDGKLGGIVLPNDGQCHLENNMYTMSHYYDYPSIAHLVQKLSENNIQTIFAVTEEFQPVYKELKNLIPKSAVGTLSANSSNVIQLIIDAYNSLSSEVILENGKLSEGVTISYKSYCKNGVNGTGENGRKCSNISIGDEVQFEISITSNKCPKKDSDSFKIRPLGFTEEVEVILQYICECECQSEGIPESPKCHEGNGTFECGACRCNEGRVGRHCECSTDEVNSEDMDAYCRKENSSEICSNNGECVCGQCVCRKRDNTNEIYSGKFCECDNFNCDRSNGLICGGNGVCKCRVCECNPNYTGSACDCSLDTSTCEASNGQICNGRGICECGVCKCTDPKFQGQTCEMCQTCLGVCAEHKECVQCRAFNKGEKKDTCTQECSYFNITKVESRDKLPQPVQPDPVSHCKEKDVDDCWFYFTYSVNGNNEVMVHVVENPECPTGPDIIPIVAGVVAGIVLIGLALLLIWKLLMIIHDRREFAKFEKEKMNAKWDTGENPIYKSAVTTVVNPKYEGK
UniProt P05106, residues 27-788: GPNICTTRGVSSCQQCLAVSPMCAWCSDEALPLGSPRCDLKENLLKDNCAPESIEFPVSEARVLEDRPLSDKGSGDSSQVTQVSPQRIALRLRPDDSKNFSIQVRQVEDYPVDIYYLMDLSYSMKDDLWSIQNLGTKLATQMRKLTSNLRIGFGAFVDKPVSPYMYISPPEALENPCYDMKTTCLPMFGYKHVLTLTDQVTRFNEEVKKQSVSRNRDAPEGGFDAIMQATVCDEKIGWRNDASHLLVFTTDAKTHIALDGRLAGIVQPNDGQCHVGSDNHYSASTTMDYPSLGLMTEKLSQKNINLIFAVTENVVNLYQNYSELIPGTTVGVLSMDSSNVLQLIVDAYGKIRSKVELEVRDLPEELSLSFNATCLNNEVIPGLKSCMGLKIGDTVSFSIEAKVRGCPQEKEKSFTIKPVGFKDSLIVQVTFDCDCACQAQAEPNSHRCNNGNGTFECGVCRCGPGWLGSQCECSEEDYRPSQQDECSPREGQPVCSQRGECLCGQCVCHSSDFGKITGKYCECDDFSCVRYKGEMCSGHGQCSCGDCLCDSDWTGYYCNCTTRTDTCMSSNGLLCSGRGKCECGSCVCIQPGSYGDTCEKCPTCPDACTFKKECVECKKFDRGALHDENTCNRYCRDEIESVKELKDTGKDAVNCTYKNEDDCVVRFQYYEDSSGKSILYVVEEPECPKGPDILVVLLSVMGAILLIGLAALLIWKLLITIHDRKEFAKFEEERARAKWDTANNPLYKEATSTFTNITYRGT
UniProt P18084, residues 24-799: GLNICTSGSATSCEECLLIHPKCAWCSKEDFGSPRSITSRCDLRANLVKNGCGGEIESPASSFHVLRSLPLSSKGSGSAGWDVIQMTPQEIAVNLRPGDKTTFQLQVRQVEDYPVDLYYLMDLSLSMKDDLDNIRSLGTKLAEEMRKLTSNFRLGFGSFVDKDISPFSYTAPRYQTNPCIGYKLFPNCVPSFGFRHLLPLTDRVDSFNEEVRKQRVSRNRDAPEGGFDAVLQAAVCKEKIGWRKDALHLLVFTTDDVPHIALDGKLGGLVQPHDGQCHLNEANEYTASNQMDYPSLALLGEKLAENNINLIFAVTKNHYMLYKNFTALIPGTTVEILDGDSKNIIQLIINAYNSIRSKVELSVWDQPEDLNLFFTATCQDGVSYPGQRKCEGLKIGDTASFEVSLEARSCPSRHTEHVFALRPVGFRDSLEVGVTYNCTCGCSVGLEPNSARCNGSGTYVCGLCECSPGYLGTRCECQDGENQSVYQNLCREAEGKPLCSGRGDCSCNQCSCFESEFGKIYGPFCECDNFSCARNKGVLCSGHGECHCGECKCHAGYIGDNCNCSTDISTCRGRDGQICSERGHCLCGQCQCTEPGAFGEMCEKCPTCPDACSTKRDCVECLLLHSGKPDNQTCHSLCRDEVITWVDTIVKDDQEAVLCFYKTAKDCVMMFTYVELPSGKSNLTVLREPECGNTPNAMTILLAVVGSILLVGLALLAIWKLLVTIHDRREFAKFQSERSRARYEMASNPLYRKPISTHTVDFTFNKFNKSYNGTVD

Tests used:
Assay in all cases: chemical cross-linking of the biotinylated peptide on chilled cells, capture on Ni-NTA plates, detection with an antibody to the marker
integrin alpha 2 = integrin alpha 2 (UniProt P17301)
integrin alpha 5 = integrin alpha 5 (UniProt P08648)
integrin alpha 6 = target: T1, integrin alpha 6 (UniProt P23229)
T1 sequence (looked up): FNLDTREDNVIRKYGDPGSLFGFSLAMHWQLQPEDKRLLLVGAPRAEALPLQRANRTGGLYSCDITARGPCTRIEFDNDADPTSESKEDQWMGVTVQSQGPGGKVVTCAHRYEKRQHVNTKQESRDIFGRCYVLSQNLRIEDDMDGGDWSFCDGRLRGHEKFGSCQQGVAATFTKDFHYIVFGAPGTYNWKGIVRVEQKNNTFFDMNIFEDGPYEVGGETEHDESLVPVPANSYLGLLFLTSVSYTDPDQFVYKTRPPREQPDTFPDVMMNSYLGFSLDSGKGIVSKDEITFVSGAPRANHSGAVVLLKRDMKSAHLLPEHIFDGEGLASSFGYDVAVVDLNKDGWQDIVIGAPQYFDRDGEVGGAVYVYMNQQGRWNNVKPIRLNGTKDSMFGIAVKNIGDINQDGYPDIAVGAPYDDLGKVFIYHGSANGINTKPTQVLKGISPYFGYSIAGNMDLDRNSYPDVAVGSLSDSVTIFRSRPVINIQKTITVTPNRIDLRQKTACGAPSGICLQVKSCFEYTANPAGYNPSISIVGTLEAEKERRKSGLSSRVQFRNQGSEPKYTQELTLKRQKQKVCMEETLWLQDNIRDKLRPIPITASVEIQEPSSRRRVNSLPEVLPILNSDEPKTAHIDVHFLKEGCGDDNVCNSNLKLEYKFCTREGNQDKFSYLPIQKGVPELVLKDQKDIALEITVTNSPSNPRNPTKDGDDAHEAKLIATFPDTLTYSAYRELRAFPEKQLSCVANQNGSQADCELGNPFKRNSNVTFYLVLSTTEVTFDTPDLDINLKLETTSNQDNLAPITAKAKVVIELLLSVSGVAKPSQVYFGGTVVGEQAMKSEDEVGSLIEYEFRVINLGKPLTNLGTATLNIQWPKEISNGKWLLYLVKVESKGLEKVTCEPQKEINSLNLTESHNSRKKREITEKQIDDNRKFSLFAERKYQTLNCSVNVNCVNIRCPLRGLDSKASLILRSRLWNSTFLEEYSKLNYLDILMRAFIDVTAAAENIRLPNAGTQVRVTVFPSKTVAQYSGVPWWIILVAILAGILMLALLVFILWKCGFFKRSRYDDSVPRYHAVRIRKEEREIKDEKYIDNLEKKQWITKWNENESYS

integrin alpha v = integrin alpha v (UniProt P06756)
integrin beta 1 = integrin beta 1 (UniProt P05556)
integrin beta 3 = integrin beta 3 (UniProt P05106)
integrin beta 5 = integrin beta 5 (UniProt P18084)

Measured: binding

B1: MBD21 peptide (biotinylated) (peptide)
peptide: KKGFYKKKQCRPSKGRKRGFCWAVDKYG
modifications: biotinylated (position not stated at this place)
binds: all assays above
